Test results published in patent US20230113823A1.
Results are given in words; binding and its absence hold for the method and conditions named. Some entries that bind do so weakly or less than the wild type.

Target: cynomolgus transferrin receptor 1 (cyno TfR1) (cynomolgus monkey (Macaca fascicularis))
Experiment: worded comparison with control antibody 15G11

Row | Binder | binding
1 | 3-A4 (antibody, V domains shown) VH: EVQLQQSGAELVRPGASVKLSCTASGFNIKDDYMYWVKQRPEQGLEWIGWIDPENGDTEYASKFQDKATVTADTSSNTAYLQLSSLTSEDTAVYYCTLWLRRGLDYWGQGTSVTVSS VL: DIVMTQAAPSVPVTPGESVSISCRSSKSLLHSNGYTYLFWFLQRPGQSPQLLIYRMSNLASGVPDRFSGSGSGTAFTLRISRVEAEDVGVYYCMQHLEYPFTFGGGTKLEIK | binds
2 | 3-E5 (antibody, V domains shown) VH: EIQMKQSGAELVKPGASVKISCKASGYSFTGYNMNWVKQSHGKSLEWIGNINPYYGSTGYNQKFKGKATLTVDKSSSTAYMQLNSLTSEDSAVYYCARGDYGYDEGTWFAYWGQGTLVTVSA VL: DIVMSQSPSSLAVSAGEKVTMSCKSSQSLLNSRTRKNYLAWYQQKPEQSPKLLIYWASTRESGVPDRFTGSGSGTDFTLTISSVQAEDLAVYYCKQSYNLPFTFGSGTKLEIK | binds

Further lines, results first:

Row | binding | Binder
3 | binds | 5-H12 (antibody, V domains shown) VH: QIQLQQSGPELVRPGASVKISCKASGYSFTDYCINWVNQRPGQGLEWIGWIYPGSGNTRYSERFKGKATLTVDTSSNTAYMQLSSLTSEDSAVYFCAREDYYPYHGMDYWGQGTSVTVSS VL: DIVLTQSPTSLAVSLGQRATISCRASESVDGYDNSFMHWYQQKPGQPPKLLIFRASNLESGIPARFSGSGSRTDFTLTINPVEAADVATYYCQQSSEDPWTFGGGTKLEIK
4 | binds | 3-M12 (antibody, V domains shown) VH: DVQLQESGPGLVKPSQSLSLTCSVTGYSITSGYYWNWIRQFPGNKLEWMGYITFDGANNYNPSLKNRISITRDTSKNQFFLKLTSVTTEDTATYYCTRSSYDYDVLDYWGQGTTLTVSS VL: DIQMTQTTSSLSASLGDRVTISCRASQDISNFLNWYQQRPDGTVKLLIYYTSRLHSGVPSRFSGSGSGTDFSLTVSNLEQEDIATYFCQQGHTLPYTFGGGTKLEIK
5 | binds | 8-K6 (antibody, V domains shown) VH: QVHLQQPGAELVKPGASVKMSCKASGYTFTSYWITWVKQRPGQGLEWIGDIFPNSGRTNYDEKFKSKATLTVDTSSSTAYMQLSSLTSEDSAVYFCAREGNFGSLDYWGQGTTLTVSS VL: QIVLTQSPAIMSASPGEKVTMTCSANSNLNYMNWYHQKSGTSPKRWIYDTSKLASGVPARFSASGSGTSYSLTISSMEAEDAATYYCQQWSRNPLTFGAGTRLELK
6 | binds | 9-D4 (antibody, V domains shown) VH: QVQLQQSGTELARPGASVKLSCKASGFTFTDYGINWVKQRTGQGLEWIGEIYPSSGNSYYNEKFKAKATLTADKSSSTAYMELRSLTSEDSAVYFCARSTYYGSPIDYWGQGTTLTVSS VL: DIVMTQSHKFMSTPVGDRVSITCKASQDVDTTVAWYQQKPGQSPKLLIYWASTRQIGVPDRFTGSGSGTDFTLTISNVQSEDLADYFCQQYSTYPLTFGGGTKLEIK
